PubChem BioAssay AID1259425 | University of Nebraska Medical Center, 2018

Screen: 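Find knockdowns that reproduce the gene expression pattern seen when KSR1 is lost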 (primary screen)
System: HCT116 human colon cancer cells
Reagent: siRNA pool against human genes, 50 nM siRNA
Measured: 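mRNA of six signature genes measured together by branched-DNA assay after 50 nM siRNA pool, blank removed, divided by geometric mean of two housekeeping genes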
Reading the numbers: BNIP3L mRNA: higher = more BNIP3L transcript after knockdown; NDRG1 mRNA: higher = more NDRG1 transcript after knockdown; BNIP3 mRNA: higher = more BNIP3 transcript after knockdown; ALDOC mRNA: higher = more ALDOC transcript after knockdown; ACSL5 mRNA: higher = more ACSL5 transcript after knockdown
Here is one part, drawn at random, of about 14,000 deposited reagents. Reagent sequences are not shown. Not stated in the record: the time to read-out.

target,"BNIP3L mRNA, set 1","NDRG1 mRNA, set 1","BNIP3 mRNA, set 1","ALDOC mRNA, set 1","ACSL5 mRNA, set 1"
SPRR2B (GeneID 6701),0.138,0.357,0.346,0.0687,0.231
C19orf44 (GeneID 84167),0.331,0.254,0.292,0.0906,0.72
GCDH (GeneID 2639),0.104,0.154,0.258,0.0473,0.113
SPATA22 (GeneID 84690),0.0701,0.242,0.209,0.0235,0.139
SH3PXD2A (GeneID 9644),0.0817,0.0212,0.248,0.0139,0.0293
ME3 (GeneID 10873),0.0737,0.163,0.371,0.0339,0.147
NPC1 (GeneID 4864),0.0696,0.139,0.203,0.0191,0.129
ATP13A2 (GeneID 23400),0.0844,0.306,0.322,0.0179,0.235
CLCF1 (GeneID 23529),0.116,0.282,0.255,0.0386,0.113
ADD2 (GeneID 119),0.101,0.0435,0.287,0.0182,0.118
SIKE1 (GeneID 80143),0.109,0.323,0.535,0.0353,0.303
CAT (GeneID 847),0.0866,0.156,0.214,0.0175,0.128
PHF10 (GeneID 55274),0.12,0.44,0.388,0.0327,0.174
CD276 (GeneID 80381),0.0932,0.0867,0.474,0.0219,0.17
PRDX6 (GeneID 9588),0.107,0.202,0.188,0.0165,0.133
RELT (GeneID 84957),0.106,0.112,0.399,0.0331,0.133
SRP72 (GeneID 6731),0.0623,0.406,0.432,0.0064,0.274
GNAT1 (GeneID 2779),0.0635,0.076,0.323,0.02,0.112
DPM3 (GeneID 54344),0.207,0.321,0.442,0.0703,0.286
PKDREJ (GeneID 10343),0.0956,0.102,0.287,0.0266,0.124
SLC12A5 (GeneID 57468),0.18,0.296,0.342,0.0548,0.527

A run of entries of the results above, for reference:
target,"BNIP3L mRNA, set 1","NDRG1 mRNA, set 1","BNIP3 mRNA, set 1","ALDOC mRNA, set 1","ACSL5 mRNA, set 1"
NPC1 (GeneID 4864),0.0696,0.139,0.203,0.0191,0.129
ATP13A2 (GeneID 23400),0.0844,0.306,0.322,0.0179,0.235

The list goes on.
target,"BNIP3L mRNA, set 1","NDRG1 mRNA, set 1","BNIP3 mRNA, set 1","ALDOC mRNA, set 1","ACSL5 mRNA, set 1"
VILL (GeneID 50853),0.0915,0.0652,0.29,0.0194,0.115
ALOX5 (GeneID 240),0.0841,0.4,0.194,0.00449,0.176
NTNG2 (GeneID 84628),0.109,0.0815,0.257,0.0254,0.163
NRG1 (GeneID 3084),0.0393,0.148,0.256,0.0172,0.225
SP140 (GeneID 11262),0.122,0.599,0.331,0.0182,0.12
TBX4 (GeneID 9496),0.123,0.143,0.343,0.0178,0.0856
PPDPF (GeneID 79144),0.0824,0.278,0.285,0.0352,0.444
EEF1D (GeneID 1936),0.0693,0.372,0.45,0.0316,0.163
RHBDD1 (GeneID 84236),0.357,0.286,0.265,0.0803,0.462
CUL2 (GeneID 8453),0.106,0.183,0.469,0.0382,0.197
PHLDA2 (GeneID 7262),0.156,0.352,0.283,0.0497,0.165
PLEKHA3 (GeneID 65977),0.173,0.298,0.205,0.0306,0.139
RTL10 (GeneID 79680),0.216,0.909,0.216,0.112,0.108
